Laboratory results: PubChem BioAssay AID743458 (Peter MacCallum Cancer Centre, 2014)
Here is an unselected part of about 1,800 reagents. Over the whole deposit, 732 (41%) were called active. 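Calls are per siRNA reagent; a gene was deemed confirmed only if most of its four siRNAs scored.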 Reagents against one gene are numbered here.

Purpose: 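Retest earlier hits with independent siRNAs per gene for restoring vorinostat sensitivity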 (follow-up of hits)
Cells: human HCT116-VR colon cancer cells made resistant to vorinostat
Reagents: single siRNA or pool against human genes, 25 nM per single siRNA
Timing: about 72 h after transfection, including 24 h of drug
Challenge: vorinostat, 2.5 µM final, for 24 h
Measurement: 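Cell viability by fluorescence and apoptosis by caspase 3/7 luminescence under vorinostat, background-corrected, averaged across two plate copies and given as fold change versus mock transfection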
Direction: viability relative to mock: higher = more living cells than mock; caspase activity relative to mock: higher = more apoptosis than mock
Call rule: 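An siRNA counts as active if classed as reduced viability or as caspase activation, otherwise inactive; a hit class needed wells that remained healthy in the absence of drug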

viability relative to mock	caspase activity relative to mock	viability hit class	caspase hit class	Call	gene	reagent
0.38	0.85	no change	no change	inactive	TTC33	1
0.74	1.81	no change	no change	inactive	TTC33	2
0.7	0.48	no change	no change	inactive	TTC33	3
0.84	0.89	no change	no change	inactive	TTC33	4
1.03	2.37	no change	no change	inactive	PLAG1	1
1	3.12	no change	caspase activation	active	PLAG1	2
0.46	2.87	reduced viability	caspase activation	active	PLAG1	3
0.7	2.53	no change	no change	inactive	PLAG1	4
1	1.32	no change	no change	inactive	PCGF6	1
0.91	1.73	no change	no change	inactive	PCGF6	2
0.98	0.97	no change	no change	inactive	PCGF6	3
0.9	0.89	no change	no change	inactive	PCGF6	4
0.48	2.3	reduced viability	no change	active	HPCAL1	1
0.83	1.43	no change	no change	inactive	HPCAL1	2
0.46	2.69	reduced viability	caspase activation	active	HPCAL1	3
0.32	3.25	reduced viability	caspase activation	active	HPCAL1	4
0.29	4.88	reduced viability	caspase activation	active	NUP54	1
0.64	5.43	no change	caspase activation	active	NUP54	2
0.72	1.88	no change	no change	inactive	NUP54	3
0.73	4.31	no change	caspase activation	active	NUP54	4
0.9	1.59	no change	no change	inactive	C16orf54	1
0.81	3.1	no change	caspase activation	active	C16orf54	2
0.3	2.35	no change	no change	inactive	C16orf54	3
0.86	2.7	no change	caspase activation	active	C16orf54	4
0.84	1.46	no change	no change	inactive	ALKBH5	1
0.66	2.79	no change	no change	inactive	ALKBH5	2
0.94	1	no change	no change	inactive	ALKBH5	3
0.42	4.66	no change	no change	inactive	ALKBH5	4
0.82	2.88	no change	caspase activation	active	SPRED3	1
0.94	1.45	no change	no change	inactive	SPRED3	2
0.18	2.63	reduced viability	caspase activation	active	SPRED3	3
0.82	2	no change	no change	inactive	SPRED3	4
0.29	4.62	reduced viability	caspase activation	active	SYPL2	1
0.88	1.62	no change	no change	inactive	SYPL2	2
0.82	1.94	no change	no change	inactive	SYPL2	3
0.76	3.23	no change	caspase activation	active	SYPL2	4
0.72	2.02	no change	no change	inactive	TCAP	1
0.64	5.89	no change	caspase activation	active	TCAP	2
0.62	3.42	no change	caspase activation	active	TCAP	3
0.88	1.49	no change	no change	inactive	TCAP	4
0.88	1.97	no change	no change	inactive	PDX1	1
1.04	0.94	no change	no change	inactive	PDX1	2
0.82	1.09	no change	no change	inactive	PDX1	3
0.54	4.17	reduced viability	caspase activation	active	PDX1	4
0.23	3.63	reduced viability	caspase activation	active	PSMD4	1
0.84	1.82	no change	no change	inactive	PSMD4	2
0.6	4.97	no change	caspase activation	active	PSMD4	3
0.58	5.25	no change	caspase activation	active	PSMD4	4
0.79	4.43	no change	caspase activation	active	TRPM4	1
0.94	0.9	no change	no change	inactive	TRPM4	2
0.94	1.04	no change	no change	inactive	TRPM4	3
0.99	1.38	no change	no change	inactive	TRPM4	4
0.98	0.93	no change	no change	inactive	RPL23AP82	1
0.32	0.93	reduced viability	no change	active	RPL23AP82	2
0.64	1.18	no change	no change	inactive	RPL23AP82	3
0.94	1.48	no change	no change	inactive	RPL23AP82	4
0.9	0.83	no change	no change	inactive	IFNA16	1
0.73	1.36	no change	no change	inactive	IFNA16	2
0.12	4.08	reduced viability	caspase activation	active	IFNA16	3
0.31	4.25	reduced viability	caspase activation	active	IFNA16	4
